Assay results as given in PubChem BioAssay AID1671190 (National Center for Advancing Translational Sciences (NCATS), 2021).
In all, about 580,000 compounds went through this assay and about 6,100 (1.1%) were called active. The inconclusive results got no clear call from the source; some entries with a clear call stand among them for comparison. Calls come from the whole dose curve; as a rule, active = well fitted inhibition curve with a large enough effect; inconclusive = small, poorly fitted or top-dose-only effect, or another doubt; inactive = no such curve, though single readings can be large or run the other way. Potencies of inconclusive entries are doubtful fits and often do not repeat.

Protein sequences, listed by entry. Tags and fused reporters are not part of them. Lines headed by an entry give the natural chain unless they say otherwise; changes in a name come on top.
UniProt P18054: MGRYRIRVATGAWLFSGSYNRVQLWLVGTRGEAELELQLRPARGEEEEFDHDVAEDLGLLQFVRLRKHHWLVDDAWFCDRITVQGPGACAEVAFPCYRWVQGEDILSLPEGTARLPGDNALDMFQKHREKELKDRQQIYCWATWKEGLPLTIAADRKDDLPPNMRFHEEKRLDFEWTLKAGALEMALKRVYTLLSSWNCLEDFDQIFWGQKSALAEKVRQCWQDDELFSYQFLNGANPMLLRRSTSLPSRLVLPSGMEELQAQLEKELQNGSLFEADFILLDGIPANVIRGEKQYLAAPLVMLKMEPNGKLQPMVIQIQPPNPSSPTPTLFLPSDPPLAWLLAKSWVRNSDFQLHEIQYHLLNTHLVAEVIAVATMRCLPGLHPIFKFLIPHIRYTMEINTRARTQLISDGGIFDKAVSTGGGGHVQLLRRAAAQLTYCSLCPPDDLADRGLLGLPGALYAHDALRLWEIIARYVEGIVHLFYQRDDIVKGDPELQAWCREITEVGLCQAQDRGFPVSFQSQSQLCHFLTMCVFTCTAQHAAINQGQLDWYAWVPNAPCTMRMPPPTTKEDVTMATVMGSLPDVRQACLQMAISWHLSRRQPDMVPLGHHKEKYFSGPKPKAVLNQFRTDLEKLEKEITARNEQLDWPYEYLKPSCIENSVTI

Each molecule was assayed against Polyunsaturated fatty acid lipoxygenase ALOX12 (Homo sapiens) (UniProt P18054) (assay: Primary qHTS assay for inhibitors of human arachidonate 12S-lipoxygenase (ALOX12): Round 2). Settings: purified 12hLO, xylenol orange hydroperoxide absorbance; activity change, negative = inhibition: at 108 µM (top of the series) unless noted.
Summary of the method: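 Purified human 12hLO at 150 nM in 25 mM Hepes, 0.01% Triton X-100, pH 7.0, preincubated 15 min at room temperature with compound. Reaction started with 40 uM arachidonic acid, 30 min at room temperature. Hydroperoxide measured by Fe-xylenol orange, 573/405 nm absorbance ratio.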
% is set by controls: 0 for no effect and ±100 for the full control effect; potency is the fitted concentration of half-maximal effect.

Structure (SMILES) | activity change, negative = inhibition | Potency
CCOc1cc(/C=C2\N=C(C)OC2=O)cc(Cl)c1OCC(=O)OC | inactive: -12.4% | –
CNc1nc2cnc(Nc3cccc(F)c3)cc2n1CCOC | – | inconclusive: 79.4 µM [inhibitor, partial curve, poor fit]
CCc1ccc(NC(=O)c2ccc(F)c(S(=O)(=O)N3CCC4(CC3)OCCO4)c2)cc1 | inactive: -20.4% | –
Cc1ccc(NC(=S)NC(=O)C2CCCC2)cc1C | – | inconclusive: 44.7 µM [inhibitor, partial curve, poor fit]
Cc1nc2ccccc2nc1SCC(=O)NC(C)c1cccc2ccccc12 (stereo not drawn) | – | inconclusive: 56.2 µM [inhibitor, single point]
O=C(O)c1ccc(CNCCCN2CCOCC2)cc1 | – | inconclusive: 3.55 µM [inhibitor, full curve]
COc1ccc(C(=O)NC2CCN(c3ccc(C)cc3)C2=O)cc1F (stereo not drawn) | – | inconclusive: 31.6 µM [inhibitor, partial curve, poor fit]
O=C(NCCCCc1ccccc1)c1cccc(NC(=O)c2ccccc2)c1 | – | inconclusive: 112 µM [inhibitor, partial curve, poor fit]
CC(C)C(NC(=O)C1CC1)c1ccccc1 (stereo not drawn) | inactive: 3.84% | –
COc1ccc(-c2nccc3c(=O)cc(N4CCOCC4)oc23)cn1 | inactive: -12% [at 176 µM] | –
O=C(c1ccc(N2CCCCC2)c([N+](=O)[O-])c1)N1CCOCC1 | inactive: 0% | –
Cc1cccc(N2CCN(C(=O)COc3noc4nc(C)cc(C)c34)CC2C)c1 (stereo not drawn) | – | inconclusive: 44.7 µM [inhibitor, single point]
O=C(Cn1ncc2ccccc2c1=O)Nc1ccc(OC2CCCC2)cc1 | – | inconclusive: 8.91 µM [inhibitor, partial curve, poor fit]
C[C@H](CO)N1C[C@H](C)[C@@H](CN(C)S(=O)(=O)c2ccccc2)Oc2c(NS(=O)(=O)c3ccccc3)cccc2C1=O | – | inconclusive: 126 µM [inhibitor, single point]
Cc1ccc(N/N=C2\CCS(=O)(=O)c3sccc32)cc1 | – | inconclusive: 35.5 µM [inhibitor, partial curve, poor fit]
N#Cc1ccc(NC(=O)CNc2cc(S(=O)(=O)N3CCCCC3)ccc2N2CCCCC2)cc1 | – | active: 15.8 µM
CCC(=O)C1=C(c2ccc(Cl)cc2)N(C(=O)CC)n2c(C)nnc2S1 | inactive: -18.8% | –
COC(=O)c1cccc(NC(N)=S)c1 | – | inconclusive: 79.4 µM [inhibitor, partial curve, poor fit]
CN(C(=O)c1cccc(NC(=O)Cc2ccc(NC(=O)C3CCCN(C(=O)C4CC4)C3)cc2)c1)C1CCCCC1 (stereo not drawn) | – | inconclusive: 31.6 µM [inhibitor, single point]
Cc1cccc(OCC(=O)OCC(=O)N2CCN(C(=O)c3ccco3)CC2)c1C | – | inconclusive: 56.2 µM [inhibitor, partial curve, poor fit]
C(=C\c1ccccc1)/CN1CCN(Cc2cc3n(n2)CCCNC3)CC1 | inactive: 47.6% | –
Cc1ccc(S(=O)(=O)c2nc(Nc3ccccc3)sc2Cl)cc1 | inactive: -14.2% | –

Sorted by formula weight (rising): ten of the compounds above
Structure (SMILES) | activity change, negative = inhibition | Potency
O=C(O)c1ccc(CNCCCN2CCOCC2)cc1 | – | inconclusive: 3.55 µM [inhibitor, full curve]
Cc1ccc(N/N=C2\CCS(=O)(=O)c3sccc32)cc1 | – | inconclusive: 35.5 µM [inhibitor, partial curve, poor fit]
COc1ccc(C(=O)NC2CCN(c3ccc(C)cc3)C2=O)cc1F (stereo not drawn) | – | inconclusive: 31.6 µM [inhibitor, partial curve, poor fit]
C(=C\c1ccccc1)/CN1CCN(Cc2cc3n(n2)CCCNC3)CC1 | inactive: 47.6% | –
Cc1ccc(S(=O)(=O)c2nc(Nc3ccccc3)sc2Cl)cc1 | inactive: -14.2% | –
CCC(=O)C1=C(c2ccc(Cl)cc2)N(C(=O)CC)n2c(C)nnc2S1 | inactive: -18.8% | –
Cc1cccc(N2CCN(C(=O)COc3noc4nc(C)cc(C)c34)CC2C)c1 (stereo not drawn) | – | inconclusive: 44.7 µM [inhibitor, single point]
Cc1cccc(OCC(=O)OCC(=O)N2CCN(C(=O)c3ccco3)CC2)c1C | – | inconclusive: 56.2 µM [inhibitor, partial curve, poor fit]
N#Cc1ccc(NC(=O)CNc2cc(S(=O)(=O)N3CCCCC3)ccc2N2CCCCC2)cc1 | – | active: 15.8 µM
CN(C(=O)c1cccc(NC(=O)Cc2ccc(NC(=O)C3CCCN(C(=O)C4CC4)C3)cc2)c1)C1CCCCC1 (stereo not drawn) | – | inconclusive: 31.6 µM [inhibitor, single point]

Later entries:

Structure (SMILES) | activity change, negative = inhibition | Potency
CC(CN1CCCCC1)OC(=O)C(C)(c1ccccc1)c1ccccc1 (stereo not drawn) | inactive: 51.3% | –
CCOc1cccc(CN(C)C(=O)CN2CC3(CCN(C)CC3)CC2=O)c1 | – | inconclusive: 1.12 µM [inhibitor, full curve, poor fit]
CCC(C)Cn1c(/C=C/c2ccccc2)nc2ccccc21 (stereo not drawn) | – | inconclusive: 39.8 µM [inhibitor, full curve, poor fit]
CCn1ccc(C(=O)N2CCC(c3n[nH]c(=O)n3-c3ccc(C)cc3)CC2)n1 | – | inconclusive: 20 µM [inhibitor, full curve]
O=C(Cc1ccc(-c2ccccc2)cc1)Nc1ccccc1 | – | inconclusive: 31.6 µM [inhibitor, partial curve, poor fit]
Cc1ccc(CNC(=O)[C@H]2CCC[C@@H](O)C2)c2cccnc12 | inactive: 0.0596% | –
Cn1c(=O)c(C(=O)CCl)c(N)n(Cc2ccccc2)c1=O | – | inconclusive: 31.6 µM [inhibitor, partial curve, poor fit]
CC1(C)C(=O)C=C(N2CCCCC2)c2ccccc21 | – | inconclusive: 79.4 µM [inhibitor, partial curve, poor fit]
O=C(N[C@H]1CCN2C(=O)c3cc(-c4ccccc4F)ccc3NC(=O)[C@H]12)c1cnccn1 | – | inconclusive: 25.1 µM [inhibitor, full curve, poor fit]
COCCn1cnnc1SCC(=O)c1ccc(S(=O)(=O)N2CCCC2)cc1 | – | inconclusive: 1.41 µM [inhibitor, full curve, poor fit]
Cc1ccc(-c2cc3n(c2)CCc2ccccc2-3)cc1 | – | active: 15.8 µM
O=C(O)c1cccc(-n2cnnn2)c1 | – | inconclusive: 8.91 µM [inhibitor, partial curve, poor fit]
C[C@H](CO)N1C[C@H](C)[C@@H](CN(C)C(=O)Nc2ccc3c(c2)OCO3)Oc2c(NS(=O)(=O)c3ccccc3)cccc2C1=O | – | inconclusive: 79.4 µM [inhibitor, single point]
CC(C)c1ccc(C(C)NC(=O)/C=C/c2ccccc2F)cc1 (stereo not drawn) | inactive: -28.7% | –
Cc1ccc(NC2=C(CC(=O)O)C(c3ccc(F)cc3)N(c3ccc(C)cc3)C2=O)cc1 (stereo not drawn) | – | inconclusive: 28.2 µM [inhibitor, partial curve]
COc1ccc(-c2cc(N3CCC(NC(=O)Cc4ccc(F)cc4)CC3)n[nH]2)cc1 | inactive: 32.7% | –
O=C(NCCCN1CCCc2ccccc21)C1Cn2cccc2C(=O)N1Cc1ccccc1 (stereo not drawn) | – | inconclusive: 89.1 µM [inhibitor, single point]
COc1ccc(N2CCN(C(=O)CCc3ccccc3OC)CC2)cc1 | inactive: 0% | –
O=C(O)c1ccc(F)c2ccccc12 | inactive: -18.3% | –
COc1ccc(Nc2nc(C)nc3c2oc2ccccc23)c(OC)c1 | – | inconclusive: 35.5 µM [inhibitor, partial curve, poor fit]
COc1ccc2cc(-c3nc(-c4ccc(S(C)=O)cc4)[nH]c3-c3ccncc3)ccc2c1 (stereo not drawn) | – | inconclusive: 1.37 µM [inhibitor, partial curve, poor fit]
